Assay results reported in PubChem BioAssay AID901 (National Center for Advancing Translational Sciences (NCATS), 2007).
The list shows a part of the results. Shown are side measurements of this screen, not its main read-out; they come without a call. The list favours compounds with an active or inconclusive main result. Potencies come from curve fits of mixed quality, noted in brackets.

Assay: qHTS Assay for Identifying the Cell-Membrane Permeable IMPase Inhibitors
Conditions: CHO-M1 cells, IP1 accumulation, HTRF TR-FRET ratio; measured here: donor channel 620 nm AC50
With COC(=O)Cn1ncc2c3ccccc3n(Cc3ccccc3)c2c1=O the AC50 was 15.8 µM [falling, partial curve, poor fit].
For Cc1c(-c2ccccc2)[n+](=O)c(-c2ccco2)c(C)n1[O-], the AC50 was 0.0316 µM [rising, full curve].
In the case of COc1cc(OC)c2c(c1)OC(c1ccc(OC)c(OC)c1)C(O)C2=O (stereo unspecified), the AC50 is reported as 1.78 µM [falling, partial curve, poor fit].
In the case of C=CCN(CC=C)S(=O)(=O)c1ccc(C(=O)Nc2sc3c(c2C(N)=O)CCCCC3)cc1, the AC50 is reported as 0.0282 µM [rising, full curve, poor fit].
With Cc1ccc(/C=C/C(=O)c2c(C)cc(C)[nH]c2=O)cc1 the AC50 was 3.98 µM [falling, single point].
For CCCCOC(=O)c1ccc(NC2=NS(=O)(=O)c3ccccc32)cc1, the AC50 was 3.98 µM [falling, full curve, poor fit].
With Cc1ccc(NS(=O)(=O)c2c(C)nc3sccn3c2=O)c(Cl)c1 the AC50 was 11.2 µM [falling, single point].
With Cc1ccc2c(n1)sc1c(-c3ccccc3)c(C#N)c(N)nc12 the AC50 was 3.16 µM [rising, full curve].
With COc1ccccc1N1CCN(c2c(CN3CCCC3)c(=O)oc3ccccc23)CC1 the AC50 was 0.0141 µM [falling, full curve, poor fit].
With CCOC(=O)c1cc2occc2n1CC(=O)N1CCN(C(=O)c2ccco2)CC1 the AC50 was 1.41 µM [falling, full curve, poor fit].
In the case of O=S(=O)(c1ccc2ccccc2c1)N(CC(O)CN1CCOCC1)c1ccccc1 (stereo unspecified), the AC50 is reported as 5.01 µM [rising, partial curve, poor fit].
In the case of CC1=NOC2(C1)/C(=N/O)CCC/C2=N\O (stereo unspecified), the AC50 is reported as 3.16 µM [rising, single point].
In the case of CCOC(=O)CN(C(=O)CNC(=O)c1cccs1)C(C(=O)NC1CCCCC1)c1cccs1 (stereo unspecified), the AC50 is reported as 1 µM [falling, full curve].
In the case of O=C(Nc1cccc(-c2nc3ccccc3[nH]2)c1)c1ccco1, the AC50 is reported as 12.6 µM [falling, partial curve, poor fit].
For CCOc1ccc(CC(=O)Nc2c(C(N)=O)oc3ccccc23)cc1OCC, the AC50 was 1 µM [falling, full curve].
With CCSc1cnn(-c2ccccc2)c(=O)c1SCC the AC50 was 12.6 µM [rising, partial curve].
With CC1CC(C)(C)NCc2ccccc21 (stereo unspecified) the AC50 was 1.26 µM [falling, full curve, poor fit].
With CCS(=O)(=O)n1nc(-c2ccco2)nc1SC the AC50 was 0.501 µM [falling, full curve, poor fit].
With CCOC(=O)c1sc(NC(C)=O)c(C(=O)OCC)c1C the AC50 was 0.00316 µM [falling, full curve, poor fit].
For O=C1NC(=O)C2(CCC(C(=O)O)C2)N1 (stereo unspecified), the AC50 was 31.6 µM [falling, single point].
For CCOC(=O)c1c(C)[nH]c(C(=O)COC(=O)CN2C(=O)C3CCCCC3C2=O)c1C (stereo unspecified), the AC50 was 1.58 µM [falling, full curve, poor fit].
With O=C(Nc1ccccc1)c1ccc[n+](Cc2ccc([N+](=O)[O-])cc2)c1 the AC50 was 5.01 µM [rising, single point].
For CCCCN(CC)S(=O)(=O)c1ccc(C(=O)Nc2nnc(COC)o2)cc1, the AC50 was 0.158 µM [falling, full curve, poor fit].
With O=c1[nH]c2cc3c(cc2cc1C(c1nnnn1CC1CCCO1)N1CCCCCC1)OCO3 (stereo unspecified) the AC50 was 0.2 µM [falling, full curve].
For CC1(C)CC(=O)C(C=NCC2CCN(C(=O)Nc3ccc(Cl)c(Cl)c3)CC2)=C(O)C1, the AC50 was 0.0158 µM [rising, partial curve, poor fit].
For CC1(C)Cc2c(sc3ncnc(N)c23)CO1, the AC50 was 0.708 µM [falling, full curve].
For CCCCn1c(=N)n(CC(O)COc2ccccc2)c2ccccc21 (stereo unspecified), the AC50 was 0.501 µM [falling, single point].
With Fc1ccc(CSc2ccc(-c3ccc4c(c3)OCO4)nn2)cc1 the AC50 was 22.4 µM [rising, single point].
For O=C(Cn1ncn2cccc2c1=O)N1CCCCC1, the AC50 was 0.0251 µM [rising, full curve, poor fit].
For CCn1nc(C(=O)Nc2cccc(C(F)(F)F)c2)c(Cl)c1Cl, the AC50 was 0.01 µM [falling, full curve, poor fit].
With CCCCCOc1ccc(C2NC(=O)NC2=O)cc1 (stereo unspecified) the AC50 was 0.00316 µM [falling, full curve, poor fit].
In the case of Cn1ncc(Cl)c1C(=O)Nc1cc(C(F)(F)F)ccc1F, the AC50 is reported as 0.251 µM [falling, full curve].
In the case of Cc1cc(C)n(-c2cc(Cl)cc(Cl)c2)c(=O)c1C#N, the AC50 is reported as 0.251 µM [rising, single point].
For CN(C)c1nc(N)nc(N(c2ccccc2)c2ccccc2)n1, the AC50 was 35.5 µM [falling, single point].
In the case of COc1ccc(-c2cc(C(=O)Oc3ccc([N+](=O)[O-])cc3)c3ccccc3n2)cc1, the AC50 is reported as 0.00501 µM [falling, full curve, poor fit].
For O=C(NCC1CCCO1)C1CCN(CC2CCCCC2)CC1 (stereo unspecified), the AC50 was 0.0251 µM [falling, full curve, poor fit].
In the case of COc1ccc(C2C(C(N)=O)=C(C)Nc3nc(-c4cccc(Cl)c4)nn32)cc1OC (stereo unspecified), the AC50 is reported as 0.178 µM [rising, full curve, poor fit].
With CC(O)CNCc1ccc(-c2ccccc2)cc1 (stereo unspecified) the AC50 was 6.31 µM [rising, single point].
For CCOC(=O)c1ccccc1NC(=O)CN(c1ccccc1)S(=O)(=O)N(C)C, the AC50 was 35.5 µM [falling, single point].
For CC(=O)N(Cc1cc2c(C)cc(C)cc2[nH]c1=O)C1CCCCC1, the AC50 was 0.0631 µM [rising, partial curve, poor fit].
With COc1ccc(OCC(=O)Nc2nnc(C)s2)cc1 the AC50 was 0.0126 µM [rising, full curve, poor fit].
With Cc1nc(SCC(=O)Nc2ccc(F)cc2)c2oc3ccccc3c2n1 the AC50 was 25.1 µM [rising, single point].
For COc1ccc(C2CC(=O)c3c(C)nc(N4CCN(Cc5ccccc5)CC4)nc3C2)cc1OC (stereo unspecified), the AC50 was 0.0251 µM [rising, full curve, poor fit].
For COc1ccc2cc(C(c3nnnn3Cc3ccccc3)N3CCCCCC3)c(=O)[nH]c2c1 (stereo unspecified), the AC50 was 6.31 µM [falling, partial curve, poor fit].
In the case of Cc1cc(NC(=O)c2cc(CC(C)C)on2)no1, the AC50 is reported as 0.00447 µM [falling, full curve, poor fit].
For Cc1ccccc1Cn1c(=O)n(Cc2ccco2)c(=O)c2ccccc21, the AC50 was 0.112 µM [falling, full curve].
In the case of CCOC(=O)C1CCN(CC(=O)N2CCCc3c2c(=O)oc2ccc(OCc4ccccc4)cc32)CC1, the AC50 is reported as 35.5 µM [falling, single point].
For N#CCSc1nc(N)c(C#N)c(C2CCCCC2)c1C#N, the AC50 was 2.51 µM [rising, single point].
In the case of CC1CCc2nc(NCCO)nc(C(F)(F)F)c2C1 (stereo unspecified), the AC50 is reported as 31.6 µM [rising, single point].
In the case of O=C(CSc1ncnc2c1cnn2-c1ccccc1)Nc1ccccc1, the AC50 is reported as 31.6 µM [rising, single point].
In the case of CCOC(=O)c1nc(NCc2cccnc2)c2ccccc2n1, the AC50 is reported as 0.02 µM [falling, single point].
In the case of O=C(CSc1ncc(-c2ccc(F)cc2)n1Cc1ccco1)Nc1ccc2c(c1)OCO2, the AC50 is reported as 0.501 µM [rising, full curve, poor fit].
For CCN1/C(=C2\C(=O)N(C)C(=S)N2C)C=Cc2ccccc21, the AC50 was 15.8 µM [falling, partial curve].
With Cc1[nH]c2ccccc2c1/C=C/c1cc[n+](C)cc1 the AC50 was 7.94 µM [falling, partial curve, poor fit].
For CCOC(=O)C1CCN(CC(=O)Nc2cc(C)nn2-c2nc3ccccc3s2)CC1, the AC50 was 3.98 µM [falling, single point].
For Cn1c(=O)n(C)c2cc(NS(=O)(=O)c3ccc(Br)cc3)c(NCc3ccccc3)cc21, the AC50 was 3.16 µM [falling, partial curve].
In the case of CCCCc1nc2ccccc2n2c(-c3ccc(C)cc3)c3c(=O)n(C)c(=O)n(C)c3c12, the AC50 is reported as 0.178 µM [falling, full curve].
With N[C@@H](Cc1ccccc1)c1nnc2sc(SCc3ccccc3)nn12 the AC50 was 25.1 µM [rising, single point].
With CNC(=S)NNC(=O)CCn1nc(C)c(Br)c1C the AC50 was 0.178 µM [falling, full curve, poor fit].
For CCc1nc(SCc2cccnc2)c2c(=O)n(C)c(=O)n(C)c2n1, the AC50 was 31.6 µM [rising, single point].
In the case of CC1CN(S(=O)(=O)c2cccc(C(=O)OC/C(O)=C(\C#N)c3nc4ccccc4[nH]3)c2)CC(C)O1 (stereo unspecified), the AC50 is reported as 0.126 µM [rising, full curve, poor fit].
With COC(=O)c1cnc2ccccc2n1 the AC50 was 10 µM [falling, partial curve].
In the case of Cc1cc(NS(=O)(=O)c2ccc(NC(=O)c3ccoc3C)cc2)nc(C)n1, the AC50 is reported as 0.01 µM [rising, full curve, poor fit].
For Cc1cc(NC(=O)CSc2cn(CCNC(=O)c3ccc(Cl)cc3)c3ccccc23)no1, the AC50 was 5.01 µM [falling, partial curve].
In the case of Cc1ccc(N2C(=O)S/C(=C/c3cn(C)c4ccccc34)C2=O)cc1, the AC50 is reported as 0.01 µM [rising, full curve, poor fit].
For CC(C)c1ccccc1OCC(=O)NC1CCCc2ccccc21 (stereo unspecified), the AC50 was 0.708 µM [falling, full curve, poor fit].
